The supplement of paper PMC8728848
Some of the results follow.

What was measured:
Assay in all cases: glycan array binding signal (z-score within array); higher = stronger binding
Details in all cases: glycan notation: IUPAC condensed, linker removed
[1] = molecular target: Man(a1-2)Man(a1-3)[Man(a1-2)Man(a1-6)]Man(a1-6)[Man(a1-2)Man(a1-2)Man(a1-3)]Man(b1-4)GlcNAc(b1-4)GlcNAc
Outline: (§1)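 The binding signal is a Z-score computed within each array and averaged over linkers. Arrays of the same protein sequence at different concentrations or buffers were also averaged together. Data originate from 3228 arrays in the Consortium for Functional Glycomics database, kept only where the protein sequence was available.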

[2] = molecular target: Man(a1-2)Man(a1-3)[Man(a1-6)]Man(a1-6)[Man(a1-2)Man(a1-3)]Man(b1-4)GlcNAc(b1-4)GlcNAc
Outline: as §1

[3] = molecular target: Man(a1-2)Man(a1-6)[Man(a1-3)]Man(a1-6)[Man(a1-2)Man(a1-2)Man(a1-3)]Man
Outline: as §1

[4] = molecular target: Man(a1-2)Man(a1-6)[Man(a1-3)]Man(a1-6)[Man(a1-2)Man(a1-2)Man(a1-3)]Man(b1-4)GlcNAc(b1-4)GlcNAc
Outline: as §1

Man(a1-3)[Man(a1-6)]Man = molecular target: Man(a1-3)[Man(a1-6)]Man
Outline: as §1

[5] = molecular target: Man(a1-3)[Man(a1-6)]Man(a1-6)[Man(a1-2)Man(a1-3)]Man(b1-4)GlcNAc(b1-4)GlcNAc
Outline: as §1

[6] = molecular target: Man(a1-3)[Man(a1-6)]Man(a1-6)[Man(a1-3)]Man
Outline: as §1

[7] = molecular target: Man(a1-3)[Man(a1-6)]Man(a1-6)[Man(a1-3)]Man(b1-4)GlcNAc(b1-4)GlcNAc
Outline: as §1

[8] = molecular target: Man(a1-3)[Man(a1-6)]Man(b1-4)GlcNAc(b1-4)GlcNAc
Outline: as §1

[9] = molecular target: Man(a1-3)[Man(a1-6)]Man(b1-4)GlcNAc(b1-4)[Fuc(a1-6)]GlcNAc
Outline: as §1

Man(a1-6)Man = molecular target: Man(a1-6)Man
Outline: as §1

Man(b1-4)GlcNAc = molecular target: Man(b1-4)GlcNAc
Outline: as §1

MurNAc(b1-4)GlcNAc = molecular target: MurNAc(b1-4)GlcNAc
Outline: as §1

Neu5Ac(a2-3)Gal = molecular target: Neu5Ac(a2-3)Gal
Outline: as §1

[10] = molecular target: Neu5Ac(a2-3)Gal(b1-3)GalNAc
Outline: as §1

[11] = molecular target: Neu5Ac(a2-3)Gal(b1-3)GalNAc(b1-3)Gal(a1-4)Gal(b1-4)Glc
Outline: as §1

[12] = molecular target: Neu5Ac(a2-3)Gal(b1-3)GalNAc(b1-4)[Neu5Ac(a2-3)]Gal(b1-4)Glc
Outline: as §1

[13] = molecular target: Neu5Ac(a2-3)Gal(b1-3)GalNAc(b1-4)[Neu5Ac(a2-8)Neu5Ac(a2-3)]Gal(b1-4)Glc
Outline: as §1

[14] = molecular target: Neu5Ac(a2-3)Gal(b1-3)GalNAc6S
Outline: as §1

[15] = molecular target: Neu5Ac(a2-3)Gal(b1-3)GlcNAc
Outline: as §1

[16] = molecular target: Neu5Ac(a2-3)Gal(b1-3)GlcNAc(b1-2)Man
Outline: as §1

[17] = molecular target: Neu5Ac(a2-3)Gal(b1-3)GlcNAc(b1-2)Man(a1-3)[GlcNAc(b1-4)][Neu5Ac(a2-3)Gal(b1-3)GlcNAc(b1-2)Man(a1-6)]Man(b1-4)GlcNAc(b1-4)GlcNAc
Outline: as §1

[18] = molecular target: Neu5Ac(a2-3)Gal(b1-3)GlcNAc(b1-2)Man(a1-3)[Neu5Ac(a2-3)Gal(b1-3)GlcNAc(b1-2)Man(a1-6)]Man(b1-4)GlcNAc(b1-4)GlcNAc
Outline: as §1

[19] = molecular target: Neu5Ac(a2-3)Gal(b1-3)GlcNAc(b1-3)Gal(b1-3)GlcNAc
Outline: as §1

[20] = molecular target: Neu5Ac(a2-3)Gal(b1-3)GlcNAc(b1-3)Gal(b1-4)GlcNAc
Outline: as §1

[21] = molecular target: Neu5Ac(a2-3)Gal(b1-3)GlcNAc(b1-3)GalNAc
Outline: as §1

[22] = molecular target: Neu5Ac(a2-3)Gal(b1-3)GlcNAc(b1-4)Gal(b1-4)Glc
Outline: as §1

[23] = molecular target: Neu5Ac(a2-3)Gal(b1-3)GlcNAc(b1-6)GalNAc
Outline: as §1

[24] = molecular target: Neu5Ac(a2-3)Gal(b1-3)GlcNAc6S
Outline: as §1

[25] = molecular target: Neu5Ac(a2-3)Gal(b1-3)[Fuc(a1-4)]GlcNAc
Outline: as §1

B1: Blon0732mut (Bifidobacterium longum) (protein)
chain: MPTSEHKADDATRHLTLIPAPVTLEYTHGTALIGPLVTIEDADQSWETLPIEQLSDELRHRYGVTVLRRRTHGTVISLGLDSRLAHDEYTLDVSESEGIRVRGGGESGLRYGLQTLRQIIGQTSRAIPCLHIQDKPAFAVRAYSLDVTRGRVPTMEFLTWFVDQLALYKYNQFQLYVEHAFAFVELSEAWRGTDPLTAADITYLDEYCARRGIELVPSLATFGHMYMNLRTREHRGLGEFPEDADRPFSFIERMEHHTLNAADPKAHDFASRLIEEYAPLFRSKSFNIGGNETFDLGRGRSAQDAPEAGRDELYAGFVRDLCETLARHGRQPMLWADIALESPRTMDLLPGDITMLNWMYEPQIDESKIQTIATQGRRQFVCPAVRAWSRFFPDYAGAWLNTYHMALAGTKYDAEGMVVTDWGDYGHVNDPRLSVPGLCYGAQNAWNPIEIDAHEMNRRISALVYGDESGRIMDCLARIDSDGVSFPWDLAVQVLELEYGSGTGALNMDVAACMERSSGGKLTLDRTLGCDDARRRMLQWNRERIERRRDCDQVLRDCGDAFAGLDKGGLTAEFLSVMLDGQRLFNELGEELLALADGKDVGSGANRLAADLELWFERYRAQWLSVGRHAELARIAHVVWSLADILRRGAL
glycan array binding signal (z-score) [1]: -0.629 | glycan array binding signal (z-score) [2]: -0.893 | glycan array binding signal (z-score) [3]: -0.255 | glycan array binding signal (z-score) [4]: 0.637 | glycan array binding signal (z-score) (Man(a1-3)[Man(a1-6)]Man): -1.25 | glycan array binding signal (z-score) [5]: -1.5 | glycan array binding signal (z-score) [6]: -0.066 | glycan array binding signal (z-score) [7]: -0.6 | glycan array binding signal (z-score) [8]: -0.261 | glycan array binding signal (z-score) [9]: -1.28 | glycan array binding signal (z-score) (Man(a1-6)Man): -0.78 | glycan array binding signal (z-score) (Man(b1-4)GlcNAc): -0.953 | glycan array binding signal (z-score) (MurNAc(b1-4)GlcNAc): -0.441 | glycan array binding signal (z-score) (Neu5Ac(a2-3)Gal): -0.286 | glycan array binding signal (z-score) [10]: -0.561 | glycan array binding signal (z-score) [11]: -0.229 | glycan array binding signal (z-score) [12]: -1.22 | glycan array binding signal (z-score) [13]: 3.81 | glycan array binding signal (z-score) [14]: -0.546 | glycan array binding signal (z-score) [15]: -0.428 | glycan array binding signal (z-score) [16]: 0.001 | glycan array binding signal (z-score) [17]: -0.712 | glycan array binding signal (z-score) [18]: -0.754 | glycan array binding signal (z-score) [19]: -0.804 | glycan array binding signal (z-score) [20]: -0.383 | glycan array binding signal (z-score) [21]: -0.781 | glycan array binding signal (z-score) [22]: 0.176 | glycan array binding signal (z-score) [23]: -0.704 | glycan array binding signal (z-score) [24]: -0.542 | glycan array binding signal (z-score) [25]: 0.93
